Data taken from article doi:10.1101/2023.05.31.543024.
Numbering of substitutions follows the chain as printed. No constants are given. Whether binding was seen depends on the method and setting. In cells and extracts the contact can be indirect. Some results given as binding are weak or reduced against the parent protein; the word gives no strength. Sequences can lack the tags named with a protein.

How the values were obtained:
Assay in all cases: co-IP
HA-DRG1 L155E (human) = target: T1, HA-DRG1 L155E (human) (UniProt Q9Y295)
T1 sequence: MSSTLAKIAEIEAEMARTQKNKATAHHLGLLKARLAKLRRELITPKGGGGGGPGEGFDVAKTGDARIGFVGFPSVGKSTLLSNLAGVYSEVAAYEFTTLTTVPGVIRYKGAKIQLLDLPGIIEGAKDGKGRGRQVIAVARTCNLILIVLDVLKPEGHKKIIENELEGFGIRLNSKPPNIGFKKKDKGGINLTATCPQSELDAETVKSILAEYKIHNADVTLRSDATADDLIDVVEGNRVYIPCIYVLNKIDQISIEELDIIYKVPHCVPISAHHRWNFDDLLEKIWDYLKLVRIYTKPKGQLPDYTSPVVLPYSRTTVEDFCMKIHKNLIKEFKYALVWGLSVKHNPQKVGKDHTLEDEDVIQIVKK

HA-DRG2 D257A (human) = target: T2, HA-DRG2 D257A (human) (UniProt P55039)
T2 sequence: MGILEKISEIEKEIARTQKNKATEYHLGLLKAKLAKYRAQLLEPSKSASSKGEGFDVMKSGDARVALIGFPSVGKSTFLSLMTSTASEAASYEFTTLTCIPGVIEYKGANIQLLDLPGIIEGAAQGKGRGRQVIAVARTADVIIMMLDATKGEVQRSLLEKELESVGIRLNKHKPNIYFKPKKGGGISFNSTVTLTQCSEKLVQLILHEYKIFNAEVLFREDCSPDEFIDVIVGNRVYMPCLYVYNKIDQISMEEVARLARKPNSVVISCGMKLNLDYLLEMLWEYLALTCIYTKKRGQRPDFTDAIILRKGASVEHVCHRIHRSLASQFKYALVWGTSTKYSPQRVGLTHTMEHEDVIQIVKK

[1] = target: T3, HA-DRG2 E153L + R258I + A260Y + Y278D (human) (UniProt P55039)
T3 sequence: T2 sequence with E153L, A257D, R258I, A260Y, Y278D

HA-DRG2 Y278D (human) = target: T4, HA-DRG2 Y278D (human) (UniProt P55039)
T4 sequence: T2 sequence with A257D, Y278D

HA-DRG2 wildtype (human) = target: T5, HA-DRG2 wildtype (human) (UniProt P55039)
T5 sequence: T2 sequence with A257D

- binding (HA-DRG1 L155E (human)): no binding
- binding (HA-DRG2 D257A (human)): binds
- binding [1]: no binding
- binding (HA-DRG2 Y278D (human)): binds
- binding (HA-DRG2 wildtype (human)): binds
B1: DRG family regulatory protein 2 (DFRP2), endogenous (protein, UniProt Q9H446 1-243)
chain: MTDYGEEQRNELEALESIYPDSFTVLSENPPSFTITVTSEAGENDETVQTTLKFTYSEKYPDEAPLYEIFSQENLEDNDVSDILKLLALQAEENLGMVMIFTLVTAVQEKLNEIVDQIKTRREEEKKQKEKEAEEAEKQLFHGTPVTIENFLNWKAKFDAELLEIKKKRMKEEEQAGKNKLSGKQLFETDHNLDTSDIQFLEDAGNNVEVDESLFQEMDDLELEDDEDDPDYNPADPESDSAD
